The source of these data is US20230074735.

Sequences of proteins named here, by UniProt entry; tags and fusion partners are left off.
UniProt P19821, whole entry: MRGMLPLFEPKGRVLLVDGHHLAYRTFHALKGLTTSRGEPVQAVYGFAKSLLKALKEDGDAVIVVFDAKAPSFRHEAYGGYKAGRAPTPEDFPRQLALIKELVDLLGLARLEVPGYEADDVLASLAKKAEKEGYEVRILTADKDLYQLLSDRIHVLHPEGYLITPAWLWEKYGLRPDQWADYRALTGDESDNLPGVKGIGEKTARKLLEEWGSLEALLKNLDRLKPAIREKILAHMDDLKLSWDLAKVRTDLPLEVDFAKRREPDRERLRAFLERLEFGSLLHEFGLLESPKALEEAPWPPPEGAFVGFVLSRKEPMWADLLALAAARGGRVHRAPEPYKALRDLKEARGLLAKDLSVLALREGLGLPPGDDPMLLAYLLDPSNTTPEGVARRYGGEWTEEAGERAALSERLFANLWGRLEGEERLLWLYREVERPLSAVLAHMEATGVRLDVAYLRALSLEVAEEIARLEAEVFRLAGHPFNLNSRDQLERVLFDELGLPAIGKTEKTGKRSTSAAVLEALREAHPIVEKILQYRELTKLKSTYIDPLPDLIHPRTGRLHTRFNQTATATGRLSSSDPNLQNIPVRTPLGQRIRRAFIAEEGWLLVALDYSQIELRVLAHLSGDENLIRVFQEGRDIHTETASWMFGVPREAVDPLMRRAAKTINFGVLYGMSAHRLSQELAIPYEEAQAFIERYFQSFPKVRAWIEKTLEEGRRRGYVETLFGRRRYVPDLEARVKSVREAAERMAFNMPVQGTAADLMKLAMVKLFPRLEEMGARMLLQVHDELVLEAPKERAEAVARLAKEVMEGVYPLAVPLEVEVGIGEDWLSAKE

No signal at the amounts used counts as a negative.

In the data set the target is Taq DNA polymerase (Thermus aquaticus) (UniProt P19821). Nature of the data set: inhibition of the protein. The conditions noted are these: 25 C, purified recombinant protein, protein details: New England Biolabs, single-stranded DNA, dose not given here.

For the sequence “AAGACAATAGGAAGACAATGTACAGTATTGTCTGAAGTAGCGCCGCCGTATTGTCTTC [ON→ON switch (too weak locking)]”, where the note is “rA at position 9, rest DNA, binding module disabled even before Pb2+ addition (dG -21.72 kcal/mol)”, the “functional effect of the aptamer” value is “not active”.

With “CGTAATACTGTACATTAGGAAGAGCTTTGCTCTGAAGTAGCGCCGCCGTAATGTACAGTATTACG [ON→ON switch (too strong unlocking)]”, the “functional effect of the aptamer” value (rA at position 17, rest DNA, ON with and without Pb2+ (no activity change; too strong unlocking)) is “not active”.

Consider “CTGTACATTGTAGGAAGAGCTTTGCTCTGAAGTAGCGCCGCCGTACAATGTACAGTATTGTACG [ON→OFF switch (optimal unlocking)]”, for which the “functional effect of the aptamer” value (rA at position 12, rest DNA, no Pb2+: polymerase ON) is “not active”.

Consider “GCGGCGTCACTATAGGAAGATCCAATGTACAGTATTGGATCTGAAGTAGCGCCGCCGTATAGTGACGCCGC [OFF→OFF switch (too strong locking)]”, for which, for the setting “rA at position 14, rest DNA, polymerase inhibited even with Pb2+ (too strong locking, dG -41.48 kcal/mol)”, the “functional effect of the aptamer” value was “active”.
